For part of these data: The name of at least one read-out is uncertain. For part of these data: At least one compound was matched to its structure with a doubt left.
Assays:
[1] = test system: CGS 21680-induced catalepsy; assay: Activity on CGS 21680-induced catalepsy; assay type: in vivo, mouse; conditions: catalepsy score 4 points or less, out of 10 mice; 10 mg/kg oral
Description: This test was carried out using 10 animals per group of male ddY mice of 5 week age (22 to 25 g in body weight, Japan SLC). […] One hour after the administration of the test compound, only forelimbs or only hindlimbs of each animal were laid on a vertically arranged stand made of acryl, having a size of 4.5 cm in height and 1.0 cm in width, to measure catalepsy symptoms. All of the test compounds were administered orally in a dose of 10 mg/kg.
The effect was judged by total catalepsy scores of 10 animals in one group (the maximum score is 50 points). When total score was 40 points or less, the activity of the compounds was judged positive. The number of animals showing remission of catalepsy was expressed by the number of cases in which the catalepsy score was 4 points or less in 10 cases. The catalepsy remission ratio was expressed as the percentage reduction of the total score in the test compound-administered group to the total score in the control group.

[2] = test system: MPTP-treated common marmoset; assay: Parkinson's disease model (common marmoset treated with MPTP); assay type: in vivo; conditions: result in words
[3] = test system: reserpine-induced catalepsy; assay: Activity on reserpine-induced catalepsy; assay type: in vivo, mouse; conditions: catalepsy score 4 points or less, out of 10 mice; oral
Description: This test was carried out using 10 animals per group of male ddY mice of 5 week age (22 to 24 g in body weight, Japan SLC). […] Reserpine (5 mg/kg: apoplon, Daiichi Pharmaceutical Co., Ltd.; diluted with distilled water) was subcutaneously administered, and catalepsy-inducing activity was observed from 18 hours after the administration. […] Each test compound was suspended in distilled water for injection containing 0.5% MC (manufactured by Otsuka Pharmaceutical Co., Ltd.) The suspension containing each of the test compounds or a solution containing no test compound (distilled water for injection containing 0.5% MC (manufactured by Otsuka Pharmaceutical Co., Ltd.); control) was orally administered (0.1 mL per 10 g mouse body weight) and, one hour after the administration of test compound, only forelimbs or only hindlimbs of each animal were laid on a stand having a size of 4.5 cm in height and 1.0 cm in width, to measure catalepsy symptoms.
The effect was judged by total catalepsy scores of 10 animals in one group (the maximum is 50 points). When the total score was 40 points or less, the activity of the test compound was judged positive. […] The catalepsy remission ratio was expressed as the percentage reduction of the total score in the test compound-administered group to the total score in the control group.

In the case of `CC(C)(O)CCN1CCN(c2cc3nc(-c4ccco4)nn3c(N)n2)CC1` [Compound 7, 5-Amino-2-(2-furyl)-7-(4-(3-hydroxy-3-methylbutyl)piperazinyl)[1,2,4]triazolo[1,5-c]pyrimidine], the “Number of animals showing remission” value [1] is reported as 9, the “Effect in the common marmoset MPTP-treated Parkinson's disease model” value [2] is reported as “effective” and the “Number of animals showing remission” value [3] is reported as 7.
